PubChem BioAssay AID504786 | Drosophila RNAi Screening Center, 2011
Test: 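Knock-downs reducing HIF reporter induction by the iron chelator DFO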 (primary screen). Cells: Drosophila S2 cells with a stable HIF luciferase reporter. Reagents: long dsRNA against Drosophila genes, about 0.2 µg dsRNA per well of a 384-well plate. Timing: three days of knock-down, then 20 h of DFO before reading. Challenge: desferrioxamine (DFO) at 100 µM, an iron chelator that mimics hypoxia, for 20 h. Detection: 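HIF reporter luminescence in cells given 100 µM DFO for 20 h, using the mouse ldh-a hypoxia-response element, scored as per-plate z-scores; higher means greater loss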. Reading the numbers: z-score: higher = stronger loss of HIF reporter signal.
The screen tested about 21,000 reagents; this is a random part of those with a known target gene and a result. 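Primary screen; positive scores mean lost reporter signal, so the sign may be inverted from the usual convention.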 A plus sign joins genes that one reagent is predicted to hit. Further read-outs or replicates are left out here. Reagent sequences are not shown.

| gene | PubChem SID | z-score, replicate 1 | z-score, replicate 2 | z-score, replicate 3 |
| --- | --- | --- | --- | --- |
| CG34176 (GeneID 5740391) | SID104180227 | -0.1 | -0.3 | – |
| Lst8 (GeneID 31903) | SID104198054 | -0.3 | -0.4 | – |
| mRpL12 (GeneID 44326) | SID104190259 | 0.6 | 0.3 | – |
| pzg (GeneID 40351) | SID104191640 | 0.5 | -0.1 | – |
| AdipoR (GeneID 42656) | SID104195559 | -0.3 | -0.6 | – |
| CG6106 (GeneID 32816) | SID104199763 | -0.3 | -0.7 | – |
| CG17528 (GeneID 3355134) | SID104187553 | -0.3 | -0.2 | – |
| Tom70 (GeneID 34618) | SID104182782 | 0.8 | 0.7 | -0.1 |
| CG31650 (GeneID 326150) | SID104182932 | -0.3 | -0.5 | – |
| COX7B (GeneID 50266) | SID104190687 | 1.9 | 0.4 | – |
| Gr22e (GeneID 117498) | SID104200704 | 0.6 | 0 | – |
| fus (GeneID 44095) | SID104185361 | 0 | 0.3 | – |
| fus (GeneID 44095) | SID104186899 | -0.3 | -0.1 | – |
| TM9SF3 (GeneID 38635) | SID104189539 | -0.5 | -0.9 | – |
| CG17618 (retired record) + CG45049 | SID104195955 | -0.1 | -0.3 | – |
| CG16863 (GeneID 34784) | SID104181684 | 0.9 | 1.7 | – |
| CG10907 (GeneID 39331) | SID104189596 | -0.4 | -0.2 | – |
| AOX1 (GeneID 41894) | SID104195131 | 0.2 | 1.4 | – |
| CG15579 (GeneID 50380) | SID104197859 | -0.3 | -0.4 | – |
| pros (GeneID 41363) | SID104192648 | -0.3 | -0.2 | – |
| pros (GeneID 41363) | SID104196824 | -0.1 | -0.3 | – |
| mnb (GeneID 32771) | SID104199850 | 4.7 | 2.7 | – |
| mnb (GeneID 32771) | SID104200145 | 0.2 | 0.1 | – |
| CG8952 (GeneID 32525) | SID104199925 | -0.3 | -0.3 | – |
| mRpS31 (GeneID 39749) | SID104190348 | 0.8 | 0.5 | – |
| CG6867 (GeneID 32782) | SID104199805 | -0.4 | -0.3 | – |
| CG17974 (GeneID 37441) | SID104184091 | -0.3 | -0.5 | – |
| Rpn3 (GeneID 35176) | SID104183110 | 5.7 | 4.6 | – |
| Yip1d1 (GeneID 34696) | SID104181958 | -0.1 | -0.4 | – |
| abo (GeneID 44793) | SID104182718 | -0.1 | -0.3 | – |
| Non1 (GeneID 35963) | SID104185746 | 0 | 1.8 | – |
| CG34136 (GeneID 4379892) | SID104181625 | 0.6 | 0.4 | – |
| CG34280 (GeneID 5740878) | SID104193021 | -0.4 | 0 | – |
| CG14618 (GeneID 33134) | SID104200423 | -0.3 | 0.4 | – |
| Nt5c (GeneID 35984) | SID104186503 | -0.4 | -0.3 | – |
| CG12914 (GeneID 36078) | SID104186021 | -0.3 | -0.3 | – |
| SkpE (GeneID 32997) | SID104199223 | -0.3 | -0.1 | – |
| CG3726 (GeneID 31525) | SID104198112 | -0.2 | -0.2 | 1.7 |
| CG2691 (GeneID 32320) | SID104199658 | 0.4 | 0.9 | – |
| apn (GeneID 41631) | SID104194916 | -0.4 | -0.4 | – |
| Brd7-9 (GeneID 34062) | SID104182809 | 1 | 0.6 | – |
| Prx2 (GeneID 53578) | SID104200048 | -0.3 | -0.3 | – |
| CG11658 (GeneID 39319) | SID104189644 | -0.3 | -0.3 | – |
| CG13829 (GeneID 42740) | SID104194471 | -0.2 | -0.6 | – |
| beat-VI (GeneID 43377) | SID104194266 | -0.4 | -0.9 | – |
| beat-VI (GeneID 43377) | SID104194519 | -0.3 | -0.4 | – |
| sphe (GeneID 32648) | SID104199995 | -0.2 | -0.8 | – |
| TwdlG (GeneID 40535) | SID104192021 | -0.2 | -0.3 | – |
| retm (GeneID 33899) | SID104183044 | -0.3 | -0.5 | – |
| Ubc4 (GeneID 39133) | SID104191104 | -0.4 | -0.1 | – |
| Egfrap (GeneID 3885637) | SID104189755 | -0.3 | -0.6 | – |
| Egfrap (GeneID 3885637) | SID104189756 | -0.5 | -0.6 | – |
| CG11588 (GeneID 39347) | SID104188937 | -0.3 | -0.7 | – |
| CG11588 (GeneID 39347) | SID104189638 | -0.3 | -0.4 | – |
| mRpL24 (GeneID 33703) | SID104182905 | 1.2 | 1.2 | – |
| CG12071 (GeneID 43660) | SID104194263 | 2.8 | 0.5 | – |
| CG7742 (GeneID 33750) | SID104182858 | -0.4 | -0.7 | – |
| CG5246 (GeneID 42072) | SID104195543 | -0.2 | -0.3 | – |
| Tmlh (GeneID 42421) | SID104195355 | 0.4 | -0.2 | – |
| Saf6 (GeneID 33255) | SID104180425 | 0.1 | -0.2 | – |
| CG42755 (retired record) (GeneID 10178886) | SID104188897 | -0.4 | -0.1 | – |
| CG42755 (retired record) (GeneID 10178886) | SID104188898 | -0.5 | -0.1 | – |
| alpha-Est2 (GeneID 40908) | SID104192406 | -0.4 | -0.1 | – |
| ScpX (GeneID 44183) | SID104183222 | -0.4 | -0.6 | – |
| CG42506 (retired record) + CG43759 | SID104199256 | -0.2 | -0.3 | – |
| CG42506 (retired record) + CG43759 | SID104199335 | 1.6 | 1.2 | – |
| CG34056 (GeneID 38106) | SID104188166 | -0.1 | -0.1 | – |
| CG9175 (GeneID 33862) | SID104182945 | -0.4 | -0.2 | – |
| Trm7-34 (GeneID 42508) | SID104195963 | 0.2 | -0.9 | – |
| CG44422 (GeneID 32063) | SID104198677 | 0.7 | 0.3 | – |
| CG44422 (GeneID 32063) | SID104199172 | 0 | -0.3 | – |
| CG44422 (GeneID 32063) | SID104199272 | -0.2 | 0.1 | – |
| Tsp42A (GeneID 35515) | SID104184654 | -0.4 | 0 | – |
| CG12920 (GeneID 36052) | SID104186026 | -0.3 | -0.2 | – |
| Hers + amn | SID104200098 | 0 | 0.5 | – |
| Cnep1r2 (GeneID 39204) | SID104190742 | -0.2 | -0.5 | – |
| CG8243 (GeneID 35890) | SID104186914 | -0.3 | -0.7 | – |
| CG3038 (GeneID 30970) | SID104198410 | -0.3 | -0.1 | – |
| CG16723 (GeneID 42781) | SID104194930 | 0 | 1.9 | – |
| CG30378 (GeneID 246577) | SID104184863 | -0.2 | -0.1 | – |
| CG3687 (GeneID 36803) | SID104186642 | -0.1 | 0.1 | – |
| CG18765 (GeneID 59149) | SID104195184 | -0.3 | -0.4 | – |
| CG16813 (GeneID 34724) | SID104182312 | -0.2 | -0.5 | – |
| CG4467 (GeneID 42747) | SID104195377 | -0.4 | 0.2 | – |
| Atf3 (GeneID 43867) | SID104197017 | 3.5 | 3.2 | – |
| Jhbp7 (GeneID 43035) | SID104194200 | -0.3 | -0.2 | – |
| CG14050 (GeneID 31218) | SID104198386 | -0.2 | 0.3 | – |
| snk (GeneID 41607) | SID104196852 | -0.2 | -0.2 | – |
| Mettl2 (GeneID 38197) | SID104188190 | -0.3 | -0.2 | – |
| NC2beta (GeneID 34875) | SID104181687 | -0.4 | -0.7 | – |
| lectin-30A (GeneID 53541) | SID104182352 | -0.1 | 0.3 | – |
| CG14014 (GeneID 33784) | SID104182137 | -0.2 | -0.1 | – |
| brp (GeneID 35977) | SID104186037 | -0.3 | -0.6 | – |
| brp (GeneID 35977) | SID104186038 | -0.3 | -0.4 | – |
| brp (GeneID 35977) | SID104186593 | -0.3 | -0.4 | – |
| CG13231 (GeneID 36169) | SID104186143 | -0.3 | -0.3 | – |
| CG12824 (GeneID 35727) | SID104185965 | -0.3 | -0.2 | – |
| COX3 (retired record) (GeneID 192471) | SID104201071 | -0.4 | 0.2 | – |
| Cdc37 (GeneID 38232) | SID104188440 | 0.1 | 0.7 | – |
| DUBAI + Tmem18 | SID104185136 | -0.3 | -0.2 | – |
| Adgf-D (GeneID 41679) | SID104196313 | -0.4 | 0 | – |
| CG7882 (GeneID 35520) | SID104184691 | -0.1 | -0.2 | – |
| CG10366 (GeneID 35258) | SID104181838 | -0.2 | -0.4 | – |
| aurB (GeneID 34504) | SID104183340 | -0.3 | -0.4 | – |
| Ziz (GeneID 34030) | SID104182298 | -0.3 | 0 | – |
| Ziz (GeneID 34030) | SID104182768 | -0.2 | -0.3 | – |

Already shown: 16 of the entries above.
| gene | PubChem SID | z-score, replicate 1 | z-score, replicate 2 | z-score, replicate 3 |
| --- | --- | --- | --- | --- |
| CG11588 (GeneID 39347) | SID104189638 | -0.3 | -0.4 | – |
| mRpL24 (GeneID 33703) | SID104182905 | 1.2 | 1.2 | – |
| CG12071 (GeneID 43660) | SID104194263 | 2.8 | 0.5 | – |
| CG7742 (GeneID 33750) | SID104182858 | -0.4 | -0.7 | – |
| CG5246 (GeneID 42072) | SID104195543 | -0.2 | -0.3 | – |
| Tmlh (GeneID 42421) | SID104195355 | 0.4 | -0.2 | – |
| Saf6 (GeneID 33255) | SID104180425 | 0.1 | -0.2 | – |
| CG42755 (retired record) (GeneID 10178886) | SID104188897 | -0.4 | -0.1 | – |
| CG42755 (retired record) (GeneID 10178886) | SID104188898 | -0.5 | -0.1 | – |
| alpha-Est2 (GeneID 40908) | SID104192406 | -0.4 | -0.1 | – |
| ScpX (GeneID 44183) | SID104183222 | -0.4 | -0.6 | – |
| CG42506 (retired record) + CG43759 | SID104199256 | -0.2 | -0.3 | – |
| CG42506 (retired record) + CG43759 | SID104199335 | 1.6 | 1.2 | – |
| CG34056 (GeneID 38106) | SID104188166 | -0.1 | -0.1 | – |
| CG9175 (GeneID 33862) | SID104182945 | -0.4 | -0.2 | – |
| Trm7-34 (GeneID 42508) | SID104195963 | 0.2 | -0.9 | – |
